These results are taken from the supplement of paper PMC7666118.

Amino acid sequences for entries named in this document (tags omitted). A change or cut given only in a name is not applied to a line headed by its entry.
UniProt Q9Y5Y0: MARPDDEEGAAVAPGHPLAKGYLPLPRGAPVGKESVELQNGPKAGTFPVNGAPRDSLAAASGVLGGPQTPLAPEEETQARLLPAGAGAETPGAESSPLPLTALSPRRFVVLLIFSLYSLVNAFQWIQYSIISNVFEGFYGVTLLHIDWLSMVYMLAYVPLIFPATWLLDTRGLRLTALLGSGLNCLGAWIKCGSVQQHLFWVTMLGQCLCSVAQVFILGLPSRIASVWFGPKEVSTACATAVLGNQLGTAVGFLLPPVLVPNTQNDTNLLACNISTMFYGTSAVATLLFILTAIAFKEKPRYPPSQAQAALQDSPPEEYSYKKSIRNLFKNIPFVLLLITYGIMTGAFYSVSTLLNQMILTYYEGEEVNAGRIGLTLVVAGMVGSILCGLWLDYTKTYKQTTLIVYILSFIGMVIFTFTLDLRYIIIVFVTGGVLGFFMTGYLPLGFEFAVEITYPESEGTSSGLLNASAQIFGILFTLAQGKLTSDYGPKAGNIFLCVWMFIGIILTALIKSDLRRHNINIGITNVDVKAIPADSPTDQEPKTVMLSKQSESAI
UniProt Q01167: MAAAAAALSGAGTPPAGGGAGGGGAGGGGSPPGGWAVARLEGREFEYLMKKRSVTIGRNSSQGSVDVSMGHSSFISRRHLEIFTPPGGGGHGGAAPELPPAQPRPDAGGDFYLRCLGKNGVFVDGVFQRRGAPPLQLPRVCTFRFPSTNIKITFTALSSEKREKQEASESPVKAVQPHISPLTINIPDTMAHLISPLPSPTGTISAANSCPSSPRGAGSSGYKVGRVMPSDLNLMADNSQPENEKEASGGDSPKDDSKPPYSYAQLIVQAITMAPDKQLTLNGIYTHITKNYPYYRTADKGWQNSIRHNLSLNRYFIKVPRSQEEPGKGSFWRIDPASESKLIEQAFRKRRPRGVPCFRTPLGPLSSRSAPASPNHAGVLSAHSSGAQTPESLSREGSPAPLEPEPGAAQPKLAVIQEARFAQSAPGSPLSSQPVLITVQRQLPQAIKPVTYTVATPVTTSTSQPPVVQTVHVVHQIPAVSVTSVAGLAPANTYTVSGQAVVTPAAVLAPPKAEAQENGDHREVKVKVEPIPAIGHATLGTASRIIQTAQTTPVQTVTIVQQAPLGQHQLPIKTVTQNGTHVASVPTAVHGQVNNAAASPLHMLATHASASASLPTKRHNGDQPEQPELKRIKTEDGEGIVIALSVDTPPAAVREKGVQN
UniProt Q53R41: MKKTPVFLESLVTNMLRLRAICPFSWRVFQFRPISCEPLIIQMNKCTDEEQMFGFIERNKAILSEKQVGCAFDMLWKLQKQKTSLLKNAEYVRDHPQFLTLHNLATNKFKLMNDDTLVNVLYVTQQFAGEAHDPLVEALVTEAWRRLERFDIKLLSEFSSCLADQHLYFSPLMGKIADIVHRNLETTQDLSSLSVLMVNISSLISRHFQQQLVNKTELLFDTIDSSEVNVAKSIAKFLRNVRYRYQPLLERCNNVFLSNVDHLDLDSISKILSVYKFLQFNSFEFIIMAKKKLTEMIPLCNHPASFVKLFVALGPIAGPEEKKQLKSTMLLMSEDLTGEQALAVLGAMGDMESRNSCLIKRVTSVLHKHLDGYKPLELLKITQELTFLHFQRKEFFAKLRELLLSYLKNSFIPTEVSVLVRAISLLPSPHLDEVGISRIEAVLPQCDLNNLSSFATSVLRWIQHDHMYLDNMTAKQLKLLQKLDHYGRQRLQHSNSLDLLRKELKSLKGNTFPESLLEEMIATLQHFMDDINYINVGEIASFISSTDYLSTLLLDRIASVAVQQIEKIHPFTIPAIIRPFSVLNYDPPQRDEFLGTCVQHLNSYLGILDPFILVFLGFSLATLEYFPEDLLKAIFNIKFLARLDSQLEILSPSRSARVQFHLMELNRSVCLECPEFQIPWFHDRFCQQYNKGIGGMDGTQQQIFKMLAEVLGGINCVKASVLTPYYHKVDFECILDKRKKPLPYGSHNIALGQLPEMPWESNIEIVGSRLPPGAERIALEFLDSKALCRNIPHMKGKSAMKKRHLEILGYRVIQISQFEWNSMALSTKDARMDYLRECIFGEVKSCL
UniProt Q8WXI9: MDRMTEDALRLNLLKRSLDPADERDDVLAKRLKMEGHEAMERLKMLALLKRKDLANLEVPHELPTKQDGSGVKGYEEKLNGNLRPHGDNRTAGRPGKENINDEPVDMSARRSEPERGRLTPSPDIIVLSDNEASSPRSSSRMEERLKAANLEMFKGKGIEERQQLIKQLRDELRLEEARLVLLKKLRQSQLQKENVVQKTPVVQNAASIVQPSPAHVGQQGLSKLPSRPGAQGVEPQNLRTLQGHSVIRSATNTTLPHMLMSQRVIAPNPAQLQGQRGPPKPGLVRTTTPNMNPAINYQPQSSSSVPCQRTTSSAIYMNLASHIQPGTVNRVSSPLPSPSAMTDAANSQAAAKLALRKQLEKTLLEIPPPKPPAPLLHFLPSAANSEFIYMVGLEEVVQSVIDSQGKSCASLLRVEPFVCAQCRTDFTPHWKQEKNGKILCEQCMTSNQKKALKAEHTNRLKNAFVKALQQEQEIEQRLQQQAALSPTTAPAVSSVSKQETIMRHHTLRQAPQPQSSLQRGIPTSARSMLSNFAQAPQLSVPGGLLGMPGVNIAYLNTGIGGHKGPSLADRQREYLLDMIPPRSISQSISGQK
UniProt Q9UKT4: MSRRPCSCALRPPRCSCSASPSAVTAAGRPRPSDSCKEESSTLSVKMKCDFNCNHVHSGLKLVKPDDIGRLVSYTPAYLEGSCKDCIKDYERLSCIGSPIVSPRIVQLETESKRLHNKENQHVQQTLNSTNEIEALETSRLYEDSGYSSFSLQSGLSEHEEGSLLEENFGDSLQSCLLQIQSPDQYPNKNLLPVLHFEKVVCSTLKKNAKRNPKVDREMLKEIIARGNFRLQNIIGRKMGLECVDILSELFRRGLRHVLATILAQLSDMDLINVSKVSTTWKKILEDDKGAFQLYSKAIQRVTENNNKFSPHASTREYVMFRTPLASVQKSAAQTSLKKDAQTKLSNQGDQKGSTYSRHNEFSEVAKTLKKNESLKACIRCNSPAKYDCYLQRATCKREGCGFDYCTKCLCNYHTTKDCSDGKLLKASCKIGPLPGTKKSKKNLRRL
UniProt Q658Y4: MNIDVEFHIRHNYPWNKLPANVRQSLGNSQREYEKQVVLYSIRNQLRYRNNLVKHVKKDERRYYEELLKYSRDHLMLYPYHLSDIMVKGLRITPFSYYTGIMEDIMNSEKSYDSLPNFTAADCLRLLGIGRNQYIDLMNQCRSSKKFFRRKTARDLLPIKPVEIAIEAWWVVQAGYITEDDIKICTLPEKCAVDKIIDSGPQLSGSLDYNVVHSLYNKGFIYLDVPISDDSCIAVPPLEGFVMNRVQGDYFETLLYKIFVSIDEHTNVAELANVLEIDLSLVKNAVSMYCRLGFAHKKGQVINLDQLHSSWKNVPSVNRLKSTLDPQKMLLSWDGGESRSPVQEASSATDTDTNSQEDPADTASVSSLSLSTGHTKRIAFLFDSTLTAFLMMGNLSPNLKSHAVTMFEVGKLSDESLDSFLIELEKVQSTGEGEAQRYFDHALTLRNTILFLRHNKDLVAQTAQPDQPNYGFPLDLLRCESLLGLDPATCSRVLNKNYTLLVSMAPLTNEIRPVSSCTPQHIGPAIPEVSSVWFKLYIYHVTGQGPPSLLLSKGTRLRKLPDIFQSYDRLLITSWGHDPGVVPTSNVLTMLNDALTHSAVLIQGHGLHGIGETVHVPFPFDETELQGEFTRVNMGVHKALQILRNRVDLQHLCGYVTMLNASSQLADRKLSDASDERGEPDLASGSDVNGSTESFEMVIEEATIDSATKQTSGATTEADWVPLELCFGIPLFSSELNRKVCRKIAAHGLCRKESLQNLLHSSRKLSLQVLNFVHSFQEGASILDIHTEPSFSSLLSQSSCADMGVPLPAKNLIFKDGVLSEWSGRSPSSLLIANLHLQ
UniProt Q9UK99: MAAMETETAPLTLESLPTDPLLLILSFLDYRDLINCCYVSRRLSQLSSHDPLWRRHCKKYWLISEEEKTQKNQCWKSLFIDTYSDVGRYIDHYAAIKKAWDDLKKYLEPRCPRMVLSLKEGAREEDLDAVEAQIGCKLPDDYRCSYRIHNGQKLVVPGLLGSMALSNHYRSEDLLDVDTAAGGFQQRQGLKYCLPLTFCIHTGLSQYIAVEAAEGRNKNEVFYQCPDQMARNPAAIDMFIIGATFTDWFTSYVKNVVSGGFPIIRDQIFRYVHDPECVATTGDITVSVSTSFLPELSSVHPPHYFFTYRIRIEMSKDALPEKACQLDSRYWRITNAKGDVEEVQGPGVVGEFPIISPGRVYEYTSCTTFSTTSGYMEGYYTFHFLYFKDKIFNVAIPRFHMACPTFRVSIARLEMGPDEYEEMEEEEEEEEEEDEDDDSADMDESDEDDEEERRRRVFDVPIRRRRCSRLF

The other results are listed elsewhere or left out.

Compound in this test: COc1ccc(Cn2ccc3cc(C)c(C(=O)NO)cc32)cc1
In words: dose-dependent thermal stabilisation call (2D-TPP, DLPTP, 10% FDR) (binary (1 = stabilised)); higher = stabilised by the compound. Particulars: system: HL-60 intact cells; concentration range 0.04-10 µM. The method, then: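 2D thermal proteome profiling in intact HL-60 cells treated with BRD-3811 (0, 0.04, 0.29, 2, 10 uM) for 90 min at 37 C, then heated 3 min at one of 12 temperatures (42-63.9 C). Soluble protein was quantified by TMT10 MS. The value is the DLPTP call of the paper: dose-dependent thermal stabilisation over all temperatures at 10% FDR (F-test of a dose-response against a flat model); one experiment, one call per tested protein.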
Turning to FLVCR1 (UniProt Q9Y5Y0), the “dose-dependent thermal stabilisation call” value was inactive: 0.

Turning to FOXK2 (UniProt Q01167), the “dose-dependent thermal stabilisation call” value is inactive: 0. Regarding FASTKD1 (UniProt Q53R41), the “dose-dependent thermal stabilisation call” value was inactive: 0. With FNTB (UniProt P49356), the “dose-dependent thermal stabilisation call” value was inactive: 0. With GATAD2B (UniProt Q8WXI9), the “dose-dependent thermal stabilisation call” value is inactive: 0. Take FBXO5 (UniProt Q9UKT4): the “dose-dependent thermal stabilisation call” value is inactive: 0.

For FAM91A1 (UniProt Q658Y4), the “dose-dependent thermal stabilisation call” value was inactive: 0. Then FBXO3 (UniProt Q9UK99), with inactive: 0.
